These are yes or no findings as the source states them, for the method shown. Binding seen in cells or lysates may run through a third protein. Binding calls can cover weak binding; strength is not graded here.
Legend:
Assay in all cases: pull-down; SBP-tagged protein transfected into C4-2 or PC3 cells, H2O2 for 2 min, free thiols blocked with 20 mM MMTS, lysate on SA-Sepharose beads, washes with 1 % Triton X-100 and 1 M urea, elution with biotin, non-reducing immunoblotting (disulfide-linked conjugates)
[1] = target: SBP-HJURP with Cys327 mutation (UniProt Q8NCD3)
[2] = target: SBP-HJURP with Cys646 mutation (UniProt Q8NCD3)
[3] = target: SBP-HJURP with Cys348 mutation (UniProt Q8NCD3)
[4] = target: SBP-HJURP with Cys457 mutation (UniProt Q8NCD3)

Sequences of proteins named here, by UniProt entry; tags and fusion partners are left off. A change or cut given only in a name is not applied to a line headed by its entry.
UniProt Q8NCD3: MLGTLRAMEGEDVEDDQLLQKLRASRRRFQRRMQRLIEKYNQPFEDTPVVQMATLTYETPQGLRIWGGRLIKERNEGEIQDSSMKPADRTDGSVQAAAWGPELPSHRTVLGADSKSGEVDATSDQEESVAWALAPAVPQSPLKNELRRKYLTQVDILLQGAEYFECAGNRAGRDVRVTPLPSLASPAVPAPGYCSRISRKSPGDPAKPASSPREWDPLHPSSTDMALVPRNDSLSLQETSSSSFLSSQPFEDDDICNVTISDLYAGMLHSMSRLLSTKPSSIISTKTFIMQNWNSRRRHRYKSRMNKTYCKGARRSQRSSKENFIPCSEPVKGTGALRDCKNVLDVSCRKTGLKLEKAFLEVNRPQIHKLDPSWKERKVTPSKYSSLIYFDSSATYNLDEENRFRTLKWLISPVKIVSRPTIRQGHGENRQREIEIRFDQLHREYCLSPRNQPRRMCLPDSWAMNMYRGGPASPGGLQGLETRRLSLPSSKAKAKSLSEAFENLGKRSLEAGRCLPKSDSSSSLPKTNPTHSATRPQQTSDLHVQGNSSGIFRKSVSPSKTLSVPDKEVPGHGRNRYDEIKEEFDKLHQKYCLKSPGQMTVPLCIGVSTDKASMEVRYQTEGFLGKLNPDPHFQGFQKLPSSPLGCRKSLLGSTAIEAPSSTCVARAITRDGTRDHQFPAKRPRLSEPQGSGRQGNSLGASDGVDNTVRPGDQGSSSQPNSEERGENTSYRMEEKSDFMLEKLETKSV

Measured: binding

B1: peroxiredoxin 1 (PRDX1) (enzyme, UniProt Q06830 1-199)
chain: MSSGNAKIGHPAPNFKATAVMPDGQFKDISLSDYKGKYVVFFFYPLDFTFVCPTEIIAFSDRAEEFKKLNCQVIGASVDSHFCHLAWVNTPKKQGGLGPMNIPLVSDPKRTIAQDYGVLKADEGISFRGLFIIDDKGILRQITVNDLPVGRSVDETLRLVQAFQFTDKHGEVCPAGWKPGSDTIKPDVQKSKEYFSKQK
binds: [1] | [2] | [3] | [4]
